Source: US20080293824A1, “Pesticidal substituted piperidines” (priority 2005, published 2008)
Some results were stated once for a whole list of compounds, not compound by compound.

What follows are compounds tested on Rhipicephalus sanguineus (assay: Screening method to test contact activity against Rhipicephalus sanguineus (brown dog tick) larvae on treated filter paper). Conditions: test concentration 1000 ppm; larvae (L1) on treated filter paper; 25° C., 90% RH; assessed 24 hours after application versus untreated control.
Assay type: in vivo

Row | Compound | contact control of Rhipicephalus sanguineus
1 | CC(=O)c1ccc(OCc2ccc(F)cc2F)cc1 [Compound 02-05] | at least 70%
2 | CC(=O)c1ccc(OCc2ccccc2)c(F)c1 [Compound 01-50] | at least 70%
3 | CCCC(=O)c1ccc(OCc2ccccc2)cc1 [Compound 01-03] | at least 70%
4 | Clc1cc(Br)ccc1OCc1ccccc1 [Compound 01-103] | at least 70%
5 | CCCOCc1ccc(OCc2ccccc2)cc1 [Compound 01-116] | at least 70%
6 | CC(=O)c1ccc(OCC2CCCCC2)cc1 [Compound 05-08] | at least 70%
7 | CC(=O)c1ccc(OCCC2CCCCC2)cc1 [Compound 05-15] | at least 70%
8 | CC(=O)c1ccc(OCc2cccc(C(F)(F)F)c2)cc1 [Compound 02-35] | at least 70%
9 | COc1c(C(C)=O)ccc(OCc2ccccc2)c1C [Compound 01-63] | at least 70%
10 | CC(=O)c1ccc(OCCc2ccccc2)cc1 [Compound 06-01] | at least 70%
11 | N#Cc1ccc(COCc2ccccc2)cc1 [Compound 03-106] | at least 70%
12 | c1ccc(COC2CCc3ccccc3C2)cc1 (stereo not shown) [Compound 05-117] | at least 70%
13 | Cc1ccc(OCc2ccccc2)cc1 [Compound 01-65] | at least 70%
14 | CCCCOCCc1ccc(OCc2ccccc2)cc1 [Compound 01-122] | at least 70%
15 | CC(=O)c1ccc(OCc2cccc(F)c2)cc1 [Compound 02-02] | at least 70%
16 | CCOC(=O)c1ccc(OCc2ccccc2)cc1 [Compound 01-26] | at least 70%
17 | CC(=O)c1ccc(OCc2ccccc2C(F)(F)F)cc1 [Compound 02-34] | at least 70%
18 | Cc1cccc(COC2Cc3ccccc3C2)c1 [Compound 05-125] | at least 70%
19 | Cc1cc(Br)ccc1OCc1ccccc1 [Compound 01-108] | at least 70%
20 | c1ccc(COc2ccc(C3CCCCC3)cc2)cc1 [Compound 01-76] | at least 70%
21 | CC(=O)c1ccc(OCc2cc(C)cc(C)c2)cc1 [Compound 02-33] | at least 70%
22 | CCc1ccc(OCc2ccccc2)cc1 [Compound 01-66] | at least 70%
23 | Brc1ccc2c(c1)CCC2OCc1ccccc1 (stereo not shown) [Compound 05-115] | at least 70%

Row | Compound | contact control of Rhipicephalus sanguineus
24 | CCCCCCCOc1ccc(C(C)=O)cc1 [Compound 05-03] | at least 70%
25 | Brc1ccc(COCc2ccccc2)cc1 [Compound 03-90] | at least 70%
26 | CC(=O)c1ccc(OCc2ccc(F)cc2)cc1 [Compound 02-03] | at least 70%
27 | CC(=O)c1ccc(OCC2CC=CCC2)cc1 (stereo not shown) [Compound 05-13] | at least 70%
28 | CCCOCCc1ccc(OCc2ccccc2)cc1 [Compound 01-121] | at least 70%
29 | c1ccc(COC2Cc3ccccc3C2)cc1 [Compound 05-110] | at least 70%
30 | COC(=O)c1ccc(OCc2ccccc2)cc1 [Compound 01-25] | at least 70%
31 | FC(F)(F)c1ccc(OCc2ccccc2)c(I)c1 [Compound 01-131] | at least 70%
32 | O=C(COCC1CCCC1)c1ccccc1 [Compound 05-07, 4-Cyclopentylmethoxy-acetophenon] | at least 70%
33 | COC(=O)c1ccccc1OCc1ccccc1 [Compound 01-41] | at least 70%
34 | N#Cc1ccc(OCc2ccccc2)cc1 [Compound 01-78] | at least 70%
35 | Clc1ccc(COC2Cc3ccccc3C2)c(Cl)c1 [Compound 05-129] | at least 70%
36 | c1ccc(COC2CCc3ccccc32)cc1 (stereo not shown) [Compound 05-109] | at least 70%
37 | CC(=O)c1ccc(OCC2CC3CCC2C3)cc1 (stereo not shown) [Compound 05-21] | at least 70%
38 | CCCCCCCCOc1ccc(C(C)=O)cc1 [Compound 05-04] | at least 70%
39 | Fc1cc(Br)ccc1OCc1ccccc1 [Compound 01-99] | at least 70%
40 | CC(=O)c1ccccc1OCc1ccccc1 [Compound 01-17] | at least 70%
41 | CC(=O)c1ccc(OCc2ccccc2)cc1C [Compound 01-57] | at least 70%
42 | Clc1ccc(OCc2ccccc2)cc1Cl [Compound 01-112] | at least 70%
43 | CC(=O)c1cccc(OCc2ccccc2)c1 [Compound 01-09] | at least 70%
44 | Clc1ccc(OCc2ccccc2)c(Cl)c1 [Compound 01-102] | at least 70%
45 | CC(=O)c1ccc(OCc2cccc(C)c2)cc1 [Compound 02-26] | at least 70%
46 | CC(=O)c1ccc(OCc2ccc(C(F)(F)F)cc2)cc1 [Compound 02-36] | at least 70%
